Laboratory results as given in patent publication US20180291096A1.
Results are given in words; binding and its absence hold for the method and conditions named. Some binding calls cover weakened binding; strength is not graded here.

By UniProt entry, the sequences of proteins in these tests, tags left out. Where a name states a change or a piece, a line headed by the entry shows the natural chain unless it says otherwise.
UniProt P29460: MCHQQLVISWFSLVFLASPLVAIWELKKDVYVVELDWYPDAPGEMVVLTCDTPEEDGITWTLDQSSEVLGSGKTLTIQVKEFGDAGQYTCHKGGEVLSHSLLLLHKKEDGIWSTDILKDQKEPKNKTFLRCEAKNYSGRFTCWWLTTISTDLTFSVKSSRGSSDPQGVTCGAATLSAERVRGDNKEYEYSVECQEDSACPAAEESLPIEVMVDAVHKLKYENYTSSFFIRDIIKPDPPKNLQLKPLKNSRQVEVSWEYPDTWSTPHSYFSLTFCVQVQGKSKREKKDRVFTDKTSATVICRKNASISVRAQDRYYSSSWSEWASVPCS

B1: MOR04205 Fab (Fab, V domains shown)
VH: QVQLVQSGAEVKKPGESLKISCKGSGYSFTNYWISWVRQAPGKGLEWMGWIRPGDSDTRYSPSFEGQVTISADKSISTAYLQWSSLKASDTAMYYCARHYYGMDYWGQGTLVTVSS
VL: DIVLTQPPSVSGAPGQRVTISCSGSSSNIGSYYVNWYQQLPGTAPKLLIYGNTHRPSGVPDRFSGSKSGTSASLAITGLQSEDEADYYCQTYASLGPGEVFGGGTKLTVL
B2: MOR04217 Fab (Fab, V domains shown)
VH: QVQLVESGGGLVQPGGSLRLSCAASGFTFSSYWITWVRQAPGKGLEWVSYISSSGSSTYYADSVKGRFTISRDNSKNTLYLQMNSLRAEDTAVYYCARGTFWSFGNYFANWGQGTLVTVSS
VL: DIVLTQSPATLSLSPGERATLSCRASQSIFYNLAWYQQKPGQAPRLLIYGASNRATGVPARFSGSGSGTDFTLTISSLEPEDFATYYCQQYSSEPVTFGQGTKVEIK
B3: MOR04649 Fab (Fab, V domains shown)
VH: QVQLVQSGAEVKKPGESLKISCKGSGYSFSNYWIGWVRQMPGKGLEWMGIIDPSNSYTNYSPSFQGQVTISADKSISTAYLQWSSLKASDTAMYYCARWYYKPFDVWGQGTLVTVSS
VL: DIVLTQPPSVSGAPGQRVTISCTGSSSNIGSGYDVHWYQQLPGTAPKLLIYGNSKRPSGVPDRFSGSKSGTSASLAITGLQSEDEADYYCSSWTPSSVVFGGGTKLTVL
B4: MOR04658 Fab (Fab, V domains shown)
VH: QVQLVESGGGLVQPGGSLRLSCAASGFTFSSFGMSWVRQAPGKGLEWVSNISSSGSSTYYADSVKGRFTISRDNSKNTLYLQMNSLRAEDTAVYYCARYWGTPYLMQFDNWGQGTLVTVSS
VL: DIALTQPASVSGSPGQSITISCTGTSSDVGGYNSVSWYQQHPGKAPKLMIYSVSSRPSGVSNRFSGSKSGNTASLTISGLQAEDEADYYCSSYDTNKPLVVFGGGTKLTVL

These binders were tested against linked rhIL-23 with no His-tag (from R&D Systems) (human) (UniProt P29460) (assay: ELISA, antigen in solution on immobilized Fab).

Binder	binding
B1	binds
B2	binds
B3	binds
B4	binds
